Laboratory results from PubChem BioAssay AID652054 (National Center for Advancing Translational Sciences (NCATS), 2013).
“And” between values parts separate entries of the source, which are not always exact repeats. Identical values can stand only once. Out of some 360,000 compounds screened, about 9,100 (2.5%) were called active. Inconclusive results, whose numbers are uncertain, are shown with a selection of clear calls. Cut-off read from the data, not from the text of the source: active = max response below about -50%; inconclusive = no clear call, values can overlap the other calls; inactive = above that.

Amino acid sequences for entries named in this document (tags omitted).
UniProt P35462, whole entry, looked up: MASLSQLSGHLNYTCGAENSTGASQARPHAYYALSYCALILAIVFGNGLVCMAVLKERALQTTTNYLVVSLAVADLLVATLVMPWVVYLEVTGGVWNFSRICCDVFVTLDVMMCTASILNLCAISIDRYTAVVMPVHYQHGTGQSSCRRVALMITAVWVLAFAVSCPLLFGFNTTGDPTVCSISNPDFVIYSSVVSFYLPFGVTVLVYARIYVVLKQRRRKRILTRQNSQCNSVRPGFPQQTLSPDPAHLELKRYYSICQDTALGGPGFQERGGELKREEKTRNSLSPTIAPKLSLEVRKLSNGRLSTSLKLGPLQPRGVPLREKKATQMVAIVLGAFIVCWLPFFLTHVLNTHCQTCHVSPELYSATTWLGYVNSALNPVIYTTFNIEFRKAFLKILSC

Biological target: D(3) dopamine receptor (Homo sapiens) (UniProt P35462)
Test: qHTS of D3 Dopamine Receptor Antagonist: qHTS
Conditions: D3R cells, DiscoveRx beta-arrestin luminescence, antagonist mode; active compounds read low
In short: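 Cells plated overnight at 1500 cells/well, then exposed to library compounds with dopamine controls for 90 minutes at 37 degrees C. DiscoveRx reagent added for 30–60 minutes at room temperature; luminescence read, quantitative HTS format.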
% is set by controls: 0 for no effect and ±100 for the full control effect.

Max response, negative = inhibition, inactive:
CC(=O)Oc1ccccc1-c1nc(/C=C/c2ccccc2)no1 10.7%
CCCCc1c(-c2ccccc2OC)ncn1CCc1ccccc1 48.6%
CC(CN1CCCC1)C(=O)NN (stereo not drawn) 16.5%
O=c1[nH]cnc(O)c1Nc1cccc(Cl)c1 -7.55%
COc1ccccc1NS(=O)(=O)c1ccc(O)c(C(=O)OCC(=O)c2ccc(Cl)cc2Cl)c1 6.3%
COc1ccc(C2c3[nH]c4ccccc4c3CCN2Cc2cccn2-c2ncccn2)cc1C (stereo not drawn) 2.98%
Cc1ccc(S(=O)(=O)N2CCC[C@H]2C(=O)OCC(=O)Nc2ccc3c(c2)OCO3)cc1 10.8%
COc1ccc(/C=C2\N=C(c3c(-c4ccccc4)noc3C)OC2=O)cc1OC 7.91%
CC(NC(=O)c1cc(-c2cccnc2)nc2ccc(Br)cc12)C1CCCO1 (stereo not drawn) -2.88%
CN1CCN(S(=O)(=O)c2ccc(N(C)Cc3ccc(OC(F)F)cc3)c([N+](=O)[O-])c2)CC1 -5.96%
CCN(CC)CCCCCC(=O)Nc1ccccc1C(=O)Nc1ccccc1 -6.66%
Cc1ccc(C(=O)NCC#N)cc1 0.472%
Cc1cc(SCC(=O)c2cccc([N+](=O)[O-])c2)nc(=O)[nH]1 -2.74%
COc1ccc(-c2[nH]c3ccccc3c2SCCNC(=O)c2ccccc2)cc1 38.7%
O=C(NC(=S)Nc1cccc(CO)c1)c1ccc(-c2ccccc2)cc1 -12%
CCN=C1SC(CC(=O)Nc2ccccc2)C(=O)N1CC (stereo not drawn) 19% and 31.1%
CC(C)(Oc1ccc(CCNC(=O)c2ccc(-c3ccccc3)o2)cc1)C(=O)O 4.1%
N#CC(=Cc1ccncc1)c1ccccc1 -2.26%
COc1ccc(-c2nn(-c3ccccc3)cc2C(=O)N2c3ccc(C)cc3C3CN(C)CCC32)cc1 (stereo not drawn) 1.17%
N/C(=N\OC(=O)c1cccc2ccccc12)c1ccccn1 -8.06%
CC[C@]12c3[nH]c4ccccc4c3CCN1C(=O)C(CC(=O)NCCc1ccccn1)C[C@@H]2C(=O)N1CCN(C(=O)c2ccco2)CC1 (stereo partly drawn) -18.7%
C=CCn1c(O)c(N=NC(=S)Nc2ccccc2F)c2ccccc21 -22.7%
COc1ccc(CC(=O)NC(C)CCc2ccccc2)cc1OC (stereo not drawn) -17%

Max response, negative = inhibition, inconclusive:
OCC1(CCc2ccccc2)CCN(Cc2c(F)ccc(F)c2F)CC1 -41.8%
Cc1cccc(C)c1C(=NCCN(C)C)c1ccccc1 -40%
Cc1ccc2nc(-c3cccnc3SCC(=O)N3c4ccccc4CC3C)[nH]c2c1 (stereo not drawn) -37.2%
CCOc1cc(CN2CCN(c3ncccn3)CC2)ccc1OC -39.9%
Cc1onc(-c2ccccc2)c1C(=O)N1CCCC(C)(C(=O)NS(=O)(=O)C2CC2)C1 (stereo not drawn) -46%
CC(=O)Nc1ccccc1-c1nc2cc(C#N)c(C#N)cc2[nH]c1=O -39.3%
O=C(O)c1ccccc1C(=O)NCCc1c(C(=O)O)[nH]c2ccc(Cl)cc12 -36.1%
COc1ccccc1NC(=S)N1CCN(c2ccccn2)CC1 -33.5%
CC(C)Cn1nc(NS(=O)(=O)c2cccc3nonc23)c2cc3ccccc3nc21 -30%
COc1ccc(C=C(c2nc3ccccc3s2)c2nc3ccccc3s2)cc1O -43.4%
CC1(C(=O)NS(=O)(=O)c2ccc(Cl)s2)CCN1C(=O)Cc1ccc(-c2ccccc2)cc1 (stereo not drawn) -32.7%
O=C(c1ccc(CSc2ccccc2)cc1)N1CCCCCC1 -34.1%
COCCCN=C1NN=C(c2cc(C)n(-c3ccccc3F)c2C)CS1 -33.3%
Cc1ccc(CN2CCC[C@]3(N[C@H](c4ccccc4)[C@@H]4C(=O)N(Cc5ccccc5)C(=O)[C@@H]43)C2=O)cc1 -38.5%
CC(C)CCn1c(NCCN(C)C)nc2c1c(=O)[nH]c(=O)n2C -36.9%
FC(F)(F)c1ccc(-c2nc(=S)[nH][nH]2)cc1 -32.2%
Cc1cccc(-n2cnc(C(=O)NC3CCCCCC3)c2)n1 -37.1%
COc1cccc(-c2noc(C3CCCN(S(=O)(=O)c4cccc(Cl)c4C)C3)n2)c1 (stereo not drawn) -30.7%
Oc1[nH]c2ccccc2c1N=NC(=S)NCC1CCCO1 (stereo not drawn) -38.2%
COc1ccc(C(=O)/C=C/c2ccc(OC)c(CN3CCOCC3)c2)cc1 -31.7%
O=C(NNc1ccc([N+](=O)[O-])cc1[N+](=O)[O-])c1ccco1 -42.6%
CSCCC(NC(=O)c1cccc([N+](=O)[O-])c1)C(=O)O (stereo not drawn) -32.1%
CCCCCN(C(=O)CCC(=O)OCCOc1ccc(OCC)cc1)c1c(N)n(CCCC)c(=O)[nH]c1=O -33.7%
CCOC(=O)c1c(NC(=O)CN2CCCCC2)sc2c1CCC(C=O)=C2Cl -30.4%
Nc1cc([N+](=O)[O-])ccc1O -48.8%
CC(C)(C)n1nnnc1C(c1ccccc1)N1CCc2ccccc2C1 (stereo not drawn) -39.3%
O=C(OCc1nc2ccccc2c(=O)[nH]1)c1cccs1 -33.1%
O=C(O)CN1C(=O)SC(Nc2ccccc2)C1=O (stereo not drawn) -31.2%
Cc1onc(-c2c(F)cccc2Cl)c1C(=O)Nc1sc2c(c1C#N)CCC(C(C)(C)C)C2 (stereo not drawn) -31.7%
COc1ccc(NC(=O)CN2CCN(CC(=O)Nc3ccc4c(c3)OCO4)CC2)cc1 -39.5%
O=C(NC(c1ccc(Cl)cc1)c1cnccn1)C1CCN(Cc2ccc(Oc3ccccc3)cc2)CC1 (stereo not drawn) -43.3%
CNc1ccc(/C=C(\CCC(=O)O)c2nc3ccccc3s2)cc1[N+](=O)[O-] -37.8%
C=CCNC(=S)N/N=C/c1ccc(C(C)(C)C)cc1 -32%
N#C/C(=C\c1ccc(N2CCOCC2)o1)C(=O)Nc1ccc(O)cc1 -43.3%
NC(N)=Nc1nc2ccc([N+](=O)[O-])cc2[nH]1 -41.1%
Cc1cccc(NC(=S)NC2CC3CCC(C2)N3Cc2ccco2)c1 (stereo not drawn) -36.8%
C=C(C)c1cccc(C(C)(C)NC(=O)Nc2ccc3[nH]c(=O)[nH]c3c2)c1 -33.8%
O=C(COc1ccc2c(c1)oc(=O)c1ccccc12)NCCCN1CCOCC1 -43.6%
O=C(Nc1cccc(-c2cccc(F)c2)c1)C1CCN(CC2CCOC2)CC1 (stereo not drawn) -31.8%
O=C(c1ccccc1F)N1CCC(N2CCCCCC2)CC1 -35.5%
CC(C)(C)c1ccc(S(=O)(=O)Nc2ccc(C(O)(C(F)(F)F)C(F)(F)F)cc2)cc1 -43.6%
COc1ccc(CN2CCNC(=O)C2CC(=O)N(C)CCc2cnn(C)c2)c(F)c1 (stereo not drawn) -30.1%
Cc1oc(-c2cccc(Cl)c2)[n+]([O-])c1C -46.8%
C=CCN(c1ccccc1)S(=O)(=O)c1cccc(C(=O)NCC(c2ccc(OC)cc2)N2CCCCC2)c1 (stereo not drawn) -39.7%

Max response, negative = inhibition, active:
O=C(Nc1ccc(C(=O)NCCCN2CCN(c3ccc(F)cc3)CC2)cc1)C1=CSCCO1 -92.4%
COc1cc(CN2CCN(C(O)(c3ccccc3)c3ccccc3)CC2)cc(OC)c1OC -71.6%
COC(=O)c1cc(Br)ccc1NC(=O)Nc1ccc(C)cc1 -79.9%
CCC(c1nnnn1-c1ccc(OC)cc1)N1CCN(C/C=C/c2ccccc2)CC1 (stereo not drawn) -56.8%
O=C(CCN1CCN(c2ccccc2)CC1)N/N=C/c1ccccc1O -67.2%
COc1cc(Cl)ccc1OC1(C)CCN(Cc2ccc(SC)cc2)C1 (stereo not drawn) -70.3%
O=C1C(Nc2ccccc2)=C(N2CCCCC2)C(=O)c2ccccc21 -60.1%
COc1cc(NCCCC(C)N)c2ncccc2c1 (stereo not drawn) -54.1%
CC(Nc1nc(N2CCCC2)nc2ccccc12)c1ccccc1 (stereo not drawn) -74.8%
O=C(CN1C(=O)C(=O)N(CCC2=CCCCC2)C1=O)c1c[nH]c2ccccc12 -52.4%
O=S1(=O)Nc2c(ccc3cccnc23)-c2ccccc21 -137%
Cc1ccc(NC(=O)CCN2CCC(C)CC2)cc1 -62%
Cn1c(=O)c2c(nc(CN3CCN(C(c4ccccc4)c4ccccc4)CC3)n2CC(N)=O)n(C)c1=O -50.2%
Cn1c(NCc2cccnc2)nc2cc(-c3ccc(C(=O)N4CCOCC4)cc3)sc2c1=O -78.4%
CC(=O)c1c(N2CCN(c3ccccc3)CC2)nc(=S)n(-c2ccccc2)c1C -53.5%
COc1ccccc1NC(=O)NCCCN1CCN(c2cccc(Cl)c2)CC1 -108%
O=C1C=C(NC2=CC3OC(c4ccccc4)OCC3OC2=O)CCC1 (stereo not drawn) -72.4%
O=C(CSc1nc2ccccc2s1)N/N=C/c1cc([N+](=O)[O-])ccc1O -61%
N=c1c(C(=O)NCc2ccco2)cc2c(=O)n3ccccc3nc2n1Cc1ccccc1 -51.4%
COC(=O)c1ccc(CN2CCC(CO)(Cc3cccc(OC)c3)CC2)cc1 -79.8%
CCOc1cc(N(CC)CC)ccc1/C=C(/C#N)c1nc2ccccc2[nH]1 -53.6%
